This assay deals with T1, C-reactive protein (CRP, Oriental Yeast Co., Ltd.) (UniProt P02741).
T1 sequence (looked up): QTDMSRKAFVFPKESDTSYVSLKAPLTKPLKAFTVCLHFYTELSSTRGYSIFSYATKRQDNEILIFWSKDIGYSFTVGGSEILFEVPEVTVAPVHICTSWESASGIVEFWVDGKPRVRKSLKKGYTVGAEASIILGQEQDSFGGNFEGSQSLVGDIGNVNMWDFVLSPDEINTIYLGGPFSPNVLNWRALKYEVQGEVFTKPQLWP
The assay is described as follows: plate ELISA, scFv-ST immobilised, 100 nM CRP, detection with mouse anti-CRP IgG (4C28 Mab C2) and HRP anti-mouse IgG. (In general: ELISA stands for enzyme-linked immunosorbent assay.)

Results are given in words; binding and its absence hold for the method and conditions named. Some entries that bind do so weakly or less than the wild type. Where a sequence is shown, tags or fusion partners need not be part of it.

B1: scFv-ST (anti-CRP scFv antibody with SpyTag added) (scFv)
scFv: HMASQVQLQQSGAELVKPGASVKLSCTASGFNIKDYYMHWVKQRTEQGLEWIGRIDPEDGETKYAPKFQGKATITADTSSNTAYLQLSSLTSEDTAVYYCARGYYGSEAMDYWGQGTSLTVSSGGGGSGGGGSGGGGSTGSIVMTQSHKFMSTSVGDRVSITCKASQDVNTAVAWYQQKPGQSPKLLIYWASTRHTGVPDRFTGSGFGTDYTLTISSVQAEDLALYYCQQHYSTPWTFGGGTKLEIKRADAAPKLAAAGSGAHIVMVDAYKPTKAEQKLISEEDLNLGGGMRGSHHHHHH
Consider B1, for which the binding result was “binds”.
